# Inconclusive means that the source gave no clear call. Such entries were picked first, then a sample of the others. For some assays here: Potencies beside an inconclusive call are fits to weak or partial responses and may not hold up. The source made the active and inactive calls. Unless noted, calls follow the shape of the full dose curve.
# Amino acid sequences for entries named in this document (tags omitted). A change or cut given only in a name is not applied to a line headed by its entry.
# UniProt P11229: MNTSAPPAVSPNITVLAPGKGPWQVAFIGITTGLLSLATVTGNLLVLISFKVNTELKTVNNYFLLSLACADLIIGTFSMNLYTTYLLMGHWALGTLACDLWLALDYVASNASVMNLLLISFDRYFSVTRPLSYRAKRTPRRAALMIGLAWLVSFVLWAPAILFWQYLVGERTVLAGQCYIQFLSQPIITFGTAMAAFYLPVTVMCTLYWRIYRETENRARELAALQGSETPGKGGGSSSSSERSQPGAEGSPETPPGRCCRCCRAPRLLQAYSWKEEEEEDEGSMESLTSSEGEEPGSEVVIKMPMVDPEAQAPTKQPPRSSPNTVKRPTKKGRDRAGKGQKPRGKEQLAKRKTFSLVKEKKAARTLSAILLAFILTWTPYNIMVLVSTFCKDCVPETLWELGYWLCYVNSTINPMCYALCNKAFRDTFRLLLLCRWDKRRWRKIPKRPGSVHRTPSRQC
# UniProt P14416, whole entry, looked up: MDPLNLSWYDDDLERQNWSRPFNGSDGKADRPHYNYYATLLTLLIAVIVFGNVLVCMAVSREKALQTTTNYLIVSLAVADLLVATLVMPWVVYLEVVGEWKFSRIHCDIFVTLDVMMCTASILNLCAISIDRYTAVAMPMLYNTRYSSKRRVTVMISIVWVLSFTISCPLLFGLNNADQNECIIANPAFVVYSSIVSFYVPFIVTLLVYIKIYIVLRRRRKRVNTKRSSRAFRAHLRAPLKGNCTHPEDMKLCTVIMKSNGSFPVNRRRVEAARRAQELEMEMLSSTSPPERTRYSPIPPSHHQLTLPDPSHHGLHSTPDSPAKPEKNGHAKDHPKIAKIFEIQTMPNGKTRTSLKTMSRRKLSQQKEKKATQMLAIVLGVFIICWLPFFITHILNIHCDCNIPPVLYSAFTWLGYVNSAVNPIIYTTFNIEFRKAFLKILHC
# UniProt P28223, whole entry, looked up: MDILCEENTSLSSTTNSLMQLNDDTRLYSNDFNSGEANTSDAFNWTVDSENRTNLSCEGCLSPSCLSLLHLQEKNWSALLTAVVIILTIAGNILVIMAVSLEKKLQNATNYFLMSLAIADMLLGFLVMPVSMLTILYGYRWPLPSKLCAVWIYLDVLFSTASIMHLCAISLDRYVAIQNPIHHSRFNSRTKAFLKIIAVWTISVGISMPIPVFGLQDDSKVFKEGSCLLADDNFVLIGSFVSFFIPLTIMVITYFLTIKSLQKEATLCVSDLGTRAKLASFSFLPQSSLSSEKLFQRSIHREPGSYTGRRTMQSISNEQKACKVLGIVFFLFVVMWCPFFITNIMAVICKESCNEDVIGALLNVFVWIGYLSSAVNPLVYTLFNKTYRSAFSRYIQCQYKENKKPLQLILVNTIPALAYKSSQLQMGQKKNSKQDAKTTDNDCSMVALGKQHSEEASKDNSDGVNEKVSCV
# Key:
# [1] = p53 small molecule agonists, cell-based qHTS assay with human liver microsomes: qHTS cell viability counter screen (AID 1963579); details: p53RE-bla HCT-116 viability, ATP luminescence, 16 h, HLM; series mostly up to 66 µM; also: nearly all actives have a fitted effect of over 45% in size; also: potency is read from the fitted curve at half-maximal effect
# How it was run: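 Viability of p53RE-bla cells is measured as CellTiter-Glo luminescence following a 16 h, 37 C incubation with compound, liver microsomes from human donors and NADPH.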
# [2] = p53 small molecule agonists, cell-based qHTS assay with rat liver microsomes: qHTS cell viability counter screen (AID 1963580); details: p53RE-bla HCT-116 + rat microsomes, ATP viability, 16 h; series mostly up to 66 µM; also: nearly all actives have a fitted effect of over 45% in size; also: potency is read from the fitted curve at half-maximal effect
# How it was run: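 HCT-116 p53RE-bla, 4,000 cells/well, 5 h pre-incubation; cpd + rat liver microsomes 0.5 mg/mL + NADPH 0.5 mg/mL (final); 16 h, 37 C; CellTiter-Glo, 30 min RT; luminescence.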
# [3] = p53 small molecule agonists, cell-based qHTS assay: qHTS cell viability counter screen (AID 1963581); details: p53RE-bla HCT-116 viability, ATP luminescence, 16 h; series mostly up to 66 µM; also: potency is read from the fitted curve at half-maximal effect; nearly all actives have a fitted effect of over 45% in size
# How it was run: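 Following 5 h attachment, HCT-116 p53RE-bla cells took up compound for 16 h at 37 C; the reporter was read with B/G FRET substrate (2 h RT), and viability then via CellTiter-Glo ATP luminescence.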
# [4] = p53 small molecule agonists, cell-based qHTS assay (AID 1963582; active = well fitted activation curve with a large enough effect in the signal ratio in the repeat runs, not every such curve was filed as active; inconclusive = weak or mixed curves; the % refers to the signal ratio; also: potency is read from the fitted curve at half-maximal effect); details: HCT-116 p53RE-bla reporter, beta-lactamase FRET ratio, 16 h; activation: at 66 µM (top of the series) unless noted
# How it was run: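 In this cell-based concentration-response screen, a p53 response element drives beta-lactamase; cells received DMSO-borne compounds after 5 h culture and were incubated a further 16 h before FRET substrate development.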
# [5] = cAMP Responsive Elements (CRE) small molecule agonists, cell-based qHTS assay (AID 1963590); details: CRE-bla HEK293T, beta-lactamase FRET ratio, 3 h; activation: at 92.4 µM (top of the series) unless noted; also: potency is read from the fitted curve at half-maximal effect
# How it was run: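 A CRE-responsive beta-lactamase reporter in HEK 293T cells was used. Treatment ran 3 h at 37 C; detection used LiveBLAzer B/G FRET substrate for 2 h at room temperature.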
# [6] = cAMP Responsive Elements (CRE) small molecule antagonists, cell-based qHTS assay (AID 1963591; active = well fitted inhibition curve with a large enough effect in the signal ratio in the repeat runs, not every such curve was filed as active; inconclusive = weak or mixed curves, or effect the other way; the % refers to the signal ratio; also: potency is read from the fitted curve at half-maximal effect; as to activity change, negative = inhibition: % is scaled to controls: 0 for no effect and ±100 for the full control effect); details: CRE-bla HEK293T, beta-lactamase FRET ratio; activity change, negative = inhibition: at 92.4 µM (top of the series) unless noted
# How it was run: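 HEK293T cells carrying a CRE-driven beta-lactamase reporter receive compound and NKH477 (0.25 uM final) for 3 h. Fluorescence from LiveBLAzer B/G FRET substrate is read after 2 h at room temperature.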
# [7] = target: Muscarinic acetylcholine receptor M1 (Homo sapiens) (UniProt P11229); experiment: Cholinergic receptor muscarinic 1 (CHRM1) small molecule antagonists, cell-based qHTS assay (AID 1963588); details: CHRM1-CHO antagonist mode, calcium flux fluorescence; series mostly up to 61.5 µM; also: nearly all actives have a fitted effect of over 40% in size; also: potency is read from the fitted curve at half-maximal effect
# How it was run: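 CHRM1-CHO calcium-flux assay, antagonist mode. Cells were seeded 18 h, dye-loaded 1 h at 37 C and given compound for 5 min at RT, then acetylcholine was added at 50nM. FDSS fluorescence was read 3 min; 15 concentrations, three runs.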
# [8] = target: Beta-2 adrenergic receptor (Homo sapiens) (UniProt P07550); experiment: Adrenergic beta2 receptor (ADRB2) small molecule agonists, cell-based qHTS assay (AID 1963593); details: CHO-ADRB2 cells, cAMP HTRF, 30 min; also: potency is read from the fitted curve at half-maximal effect
# How it was run: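 CHO cells stably over-expressing ADRB2 were plated overnight at 37C, then dosed with compounds plus a stimulation mix containing 100uM IBMX and 25uM Ro-20-1724 for 0.5hr at room temperature. cAMP was measured by HTRF competition, 1hr.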
# [9] = target: D(2) dopamine receptor (Homo sapiens) (UniProt P14416); experiment: Dopamine D2 receptor (DRD2) small molecule antagonists, cell-based qHTS assay (AID 1963595; active = well fitted inhibition curve with a large enough effect in the signal ratio in the repeat runs, with a control signal flat; inconclusive = weak or mixed curves, or effect the other way; the % refers to the signal ratio; also: potency is read from the fitted curve at half-maximal effect; as to activity change, negative = inhibition: % is scaled to controls: 0 for no effect and ±100 for the full control effect); details: HEK293-DRD2 cAMP HTRF antagonist mode; activity change, negative = inhibition: at 92.4 µM (top of the series) unless noted
# How it was run: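 Readout: HTRF cAMP, cAMP-d2 competing with cellular cAMP for anti-cAMP cryptate, read after 1 h. Cells: DRD2-HEK293. Conditions: 0.1 mM Ro20-1724, 12 nM quinpirole, 200 nM NKH477, 30 min RT.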
# [10] = p53 small molecule agonists, cell-based qHTS assay with rat liver microsomes (AID 1963578); details: HCT-116 p53RE-bla, beta-lactamase ratio, 16 h; activation: at 66 µM (top of the series) unless noted; also: % is scaled to controls: 0 for no effect and ±100 for the full control effect
# How it was run: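 Quantitative HTS of the Tox21 10K library: p53RE-bla cells, rat liver microsomes plus NADPH at 0.5 mg/mL final each, 16 h at 37 C, beta-lactamase fluorescence detection.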
# [11] = target: 5-hydroxytryptamine receptor 2A (Homo sapiens) (UniProt P28223); experiment: 5-hydroxytryptamine receptor 2A (HTR2A) small molecule antagonists, cell-based qHTS assay (AID 1963586); details: HTR2A-CHO cells, DOI-induced calcium flux, fluorescence; series mostly up to 61.5 µM; also: potency is read from the fitted curve at half-maximal effect; nearly all actives have a fitted effect of over 45% in size
# How it was run: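 Antagonist-mode intracellular calcium assay: DOI (4 nM) added after 5 min compound pre-incubation at room temperature to dye-loaded HTR2A-CHO cells. Fluorescence followed for 3 min, sampled every second.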
# [12] = target: Beta-2 adrenergic receptor (Homo sapiens) (UniProt P07550); experiment: Adrenergic beta2 receptor (ADRB2) small molecule antagonists, cell-based qHTS assay (AID 1963592); details: CHO-ADRB2 cells, isoproterenol-stimulated cAMP HTRF ratio, 0.5 h; activity change, negative = inhibition: at 92.4 µM (top of the series) unless noted; also: nearly all actives have a fitted effect of over 50% in size; also: potency is read from the fitted curve at half-maximal effect; as to activity change, negative = inhibition: % is scaled to controls: 0 for no effect and ±100 for the full control effect
# How it was run: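 Cells (CHO, stable ADRB2 overexpression) incubated 18-20hr at 37C; compounds added from DMSO; agonist mix (1nM isoproterenol, 100uM IBMX, 25uM Ro-20-1724) added; 0.5hr RT; d2-cAMP and anti-cAMP-cryptate added; 1hr RT; 665/615 nm read.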
# [13] = target: D(2) dopamine receptor (Homo sapiens) (UniProt P14416); experiment: Dopamine D2 receptor (DRD2) small molecule agonists, cell-based qHTS assay (AID 1963594); details: HEK293-DRD2 cAMP HTRF, agonist mode, 30 min; activation: at 92.4 µM (top of the series) unless noted; also: potency is read from the fitted curve at half-maximal effect; nearly all actives have a fitted effect of over 35% in size
# How it was run: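 cAMP accumulation in DRD2-HEK293 cells measured by HTRF after 1 h detection; compounds added 10 min before NKH477 (200nM […]) forskolin-analogue stimulation, 30 min at room temperature, with Ro20-1724 present at 0.1 mM final.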
# [14] = target: 5-hydroxytryptamine receptor 2A (Homo sapiens) (UniProt P28223); experiment: 5-hydroxytryptamine receptor 2A (HTR2A) small molecule agonists, cell-based qHTS assay (AID 1963587); details: HTR2A-CHO cells, calcium flux fluorescence, agonist mode; series mostly up to 76.8 µM; also: potency is read from the fitted curve at half-maximal effect; nearly all actives have a fitted effect of over 30% in size
# How it was run: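 Kinetic calcium-flux fluorescence (2 min, 1 sec intervals) after compound addition in agonist mode. HTR2A-CHO cells were cultured 18 h, then dye-loaded 1 h at 37 C.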
# [15] = activation: at 92.4 µM (top of the series) unless noted
smiles,measurement,setting,value
[Cl][Au]([Cl])[Cl],Potency,[1],"inconclusive: 51.3 µM [cytotoxic, single point]"
same,Potency,[2],"inconclusive: 51.3 µM [cytotoxic, single point]"
same,Potency,[3],"inconclusive: 51.3 µM [cytotoxic, single point]"
same,Potency,[4],"inconclusive: 4.58 µM [rising, partial curve]"
same,Potency,[5],inconclusive: 68.6 µM
same,Potency,[6],inconclusive: 68.6 µM [inhibitor]
CC(=O)Oc1ccc(C2(c3ccc(OC(C)=O)cc3)Oc3ccccc3NC2=O)cc1,Potency,[1],"inconclusive: 5.61 µM [rising, full curve]"
same,Potency,[2],"inconclusive: 22.3 µM [rising, partial curve, poor fit]"
same,Potency,[3],"inconclusive: 7.07 µM [rising, partial curve]"
same,Potency,[4],active: 4.46 µM
same,Potency,[7],"inconclusive: 20.5 µM [inhibitor, single point]"
same,Potency,[6],"inconclusive: 10.6 µM [inhibitor, partial curve, poor fit]"
same,Potency,[8]; [15],"inconclusive: 9.44 µM [inhibitor, partial curve, poor fit]"
same,"activity change, negative = inhibition",[9],inconclusive: -26.1% [at 42.5 µM]
CCCCCCCCCOCC1CO1 (configuration not stated),Potency,[10],inactive
same,Potency,[8]; [15],"inconclusive: 4 µM [inhibitor, partial curve, poor fit]"
CC(=O)OC(OC(C)=O)c1ccc([N+](=O)[O-])o1,Potency,[1],"inconclusive: 20.8 µM [cytotoxic, full curve]"
same,Potency,[2],"inconclusive: 52.2 µM [cytotoxic, single point]"
same,Potency,[3],"inconclusive: 52.2 µM [cytotoxic, single point]"
same,Potency,[4],"inconclusive: 52.2 µM [rising, single point]"
same,Potency,[11],"inconclusive: 0.605 µM [inhibitor, full curve, poor fit]"
same,Potency,[7],inactive
same,Potency,[5],inconclusive: 69.8 µM
same,Potency,[6],inconclusive: 69.8 µM
same,"activity change, negative = inhibition",[12],inconclusive: 25.9%
same,Potency,[8]; [15],"inconclusive: 4.94 µM [activator, partial curve, poor fit]"
O=S1(=O)CC(Cl)(Cl)C(Cl)(Cl)C1,Potency,[1],active: 5.76 µM
same,Potency,[2],active: 18.2 µM
same,Potency,[3],active: 16.2 µM
same,Potency,[5],"inconclusive: 21.7 µM [rising, full curve]"
same,Potency,[6],"inconclusive: 13.7 µM [rising, full curve]"
same,Potency,[12],inconclusive: 4.33 µM [activator]
same,Potency,[8]; [15],inconclusive: 68.6 µM [inhibitor]
same,Potency,[13],"inconclusive: 68.6 µM [rising, single point]"
same,Potency,[9],"inconclusive: 27.3 µM [inhibitor, single point]"
Cc1ccc(-c2ncc(Cl)cc2-c2ccc(S(C)(=O)=O)cc2)cn1,Potency,[1],inactive
same,Potency,[2],inactive
same,Potency,[14],"inconclusive: 10.7 µM [activator, partial curve, poor fit]"
same,Potency,[5],"inconclusive: 29.8 µM [rising, partial curve, poor fit]"
same,"activity change, negative = inhibition",[6],inconclusive: 17.2% [at 42.4 µM]
same,Potency,[8]; [15],"inconclusive: 11.9 µM [inhibitor, partial curve]"
same,"activity change, negative = inhibition",[9],inconclusive: -2.09% [at 42.5 µM]
N[C@@H](Cc1c[nH]c2ccccc12)C(=O)O,Potency,[1],inactive
same,Potency,[2],"inconclusive: 25.8 µM [cytotoxic, partial curve, poor fit]"
same,Potency,[11],"inconclusive: 42.1 µM [inhibitor, partial curve, poor fit]"
same,activation,[8]; [15],inconclusive: 17.3%
same,activation,[8]; at 92.4 µM (top of the series),inactive: -22.1%
O=C(O)c1cccc(-c2noc(-c3ccccc3F)n2)c1,Potency,[1],active: 15.8 µM
same,Potency,[2],"inconclusive: 7.93 µM [cytotoxic, partial curve, poor fit]"
same,Potency,[3],active: 15.8 µM
same,Potency,[5],"inconclusive: 11.9 µM [rising, partial curve]"
same,Potency,[6],"inconclusive: 18.8 µM [fluorescent, partial curve]"
same,activation,[8]; [15],inconclusive: -40.9% [at 42.5 µM]
CN(C[C@@H](CC[N+]12CCC(C3CCCCC3)(CC1)CC2)c1ccc(Cl)c(Cl)c1)C(=O)c1cc(C(F)(F)F)cc(C(F)(F)F)c1,Potency,[1],active: 36.3 µM
same,Potency,[2],active: 40.8 µM
same,Potency,[4],"inconclusive: 45.8 µM [cytotoxic, single point]"
same,Potency,[7],active: 0.0942 µM
same,Potency,[5],"inconclusive: 77 µM [falling, partial curve, poor fit]"
same,Potency,[6],"inconclusive: 77 µM [cytotoxic, single point]"
same,Potency,[8]; [15],inconclusive: 68.6 µM [inhibitor]
same,Potency,[13],"inconclusive: 68.6 µM [rising, single point]"
same,Potency,[9],"inconclusive: 27.3 µM [inhibitor, single point]"

# Part of the list above, reformatted.
smiles | measurement | setting | value
O=S1(=O)CC(Cl)(Cl)C(Cl)(Cl)C1 | Potency | [6] | inconclusive: 13.7 µM [rising, full curve]
same | Potency | [12] | inconclusive: 4.33 µM [activator]
same | Potency | [8]; [15] | inconclusive: 68.6 µM [inhibitor]
same | Potency | [13] | inconclusive: 68.6 µM [rising, single point]
same | Potency | [9] | inconclusive: 27.3 µM [inhibitor, single point]
Cc1ccc(-c2ncc(Cl)cc2-c2ccc(S(C)(=O)=O)cc2)cn1 | Potency | [1] | inactive
same | Potency | [2] | inactive
same | Potency | [14] | inconclusive: 10.7 µM [activator, partial curve, poor fit]
same | Potency | [5] | inconclusive: 29.8 µM [rising, partial curve, poor fit]
same | activity change, negative = inhibition | [6] | inconclusive: 17.2% [at 42.4 µM]
same | Potency | [8]; [15] | inconclusive: 11.9 µM [inhibitor, partial curve]
same | activity change, negative = inhibition | [9] | inconclusive: -2.09% [at 42.5 µM]
